Patent publication EP1652531A1, “Use of GLP-1 or Analogues in Treatment of Stroke” (Eli Lilly & Company, priority 1998, dated 2006)
At least one peptide structure holds a part that was inferred or is arguable (an end, a ring closure or a residue).

Assays:
[1] = tested on: patients having non-insulin dependent diabetes (NIDDM); assay: Overnight continuous subcutaneous infusion, blood glucose in NIDDM patients (Example 1); conditions: five NIDDM patients, subcutaneous infusion 1.2 pmol/kg/hr for ten hours during the night
NIDDM patients = assay: Infusion for three hours at each meal during the day, blood glucose in NIDDM patients (Example 2); conditions: five NIDDM patients, infused for three hours beginning at the start of each meal (7:30, 10:30, 16:30)

CC[C@H](C)[C@H](NC(=O)[C@H](Cc1ccccc1)NC(=O)[C@H](CCC(=O)O)NC(=O)[C@H](CCCCN)NC(=O)[C@H](C)NC(=O)[C@H](C)NC(=O)[C@H](CCC(N)=O)NC(=O)CNC(=O)[C@H](CCC(=O)O)NC(=O)[C@H](CC(C)C)NC(=O)[C@H](Cc1ccc(O)cc1)NC(=O)[C@H](CO)NC(=O)[C@H](CO)NC(=O)[C@@H](NC(=O)[C@H](CC(=O)O)NC(=O)[C@H](CO)NC(=O)[C@@H](NC(=O)[C@H](Cc1ccccc1)NC(=O)[C@@H](NC(=O)CNC(=O)[C@H](CCC(=O)O)NC(=O)[C@H](C)NC(=O)[C@@H](N)Cc1c[nH]cn1)[C@@H](C)O)[C@@H](C)O)C(C)C)C(=O)N[C@@H](C)C(=O)N[C@@H](Cc1c[nH]c2ccccc12)C(=O)N[C@@H](CC(C)C)C(=O)N[C@H](C(=O)N[C@@H](CCCCN)C(=O)NCC(=O)N[C@@H](CCCNC(=N)N)C(N)=O)C(C)C [GLP-1(7-36) amide]
Average Blood Glucose ([1]; hour 0:00): 4.4 mM
Average Blood Glucose ([1]; hour 1:00): 4.4 mM
Average Blood Glucose ([1]; hour 2:00): 4.8 mM
Average Blood Glucose ([1]; hour 3:00): 5.2 mM
Average Blood Glucose ([1]; hour 4:00): 5.4 mM
Average Blood Glucose ([1]; hour 5:00): 5.8 mM
Average Blood Glucose ([1]; hour 6:00): 6.0 mM
Average Blood Glucose ([1]; hour 7:00): 6.2 mM
Average Blood Glucose ([1]; hour 21:00): 7.5 mM
Average Blood Glucose ([1]; hour 22:00): 5.4 mM
Average Blood Glucose ([1]; hour 23:00): 4.1 mM
Average Blood Glucose (NIDDM patients; hour 7:00): 5.4 mM
Average Blood Glucose (NIDDM patients; hour 8:00): 4.9 mM
Average Blood Glucose (NIDDM patients; hour 9:00): 5.7 mM
Average Blood Glucose (NIDDM patients; hour 10:00): 5.8 mM
Average Blood Glucose (NIDDM patients; hour 11:00): 8.1 mM
Average Blood Glucose (NIDDM patients; hour 12:00): 9.4 mM
Average Blood Glucose (NIDDM patients; hour 13:00): 7.2 mM
Average Blood Glucose (NIDDM patients; hour 14:00): 5.3 mM
Average Blood Glucose (NIDDM patients; hour 15:00): 7.2 mM
Average Blood Glucose (NIDDM patients; hour 16:00): 10.4 mM
Average Blood Glucose (NIDDM patients; hour 17:00): 9.2 mM
Average Blood Glucose (NIDDM patients; hour 18:00): 5.7 mM
Average Blood Glucose (NIDDM patients; hour 19:00): 6.6 mM
Average Blood Glucose (NIDDM patients; hour 20:00): 8.3 mM
Average Blood Glucose (NIDDM patients; hour 21:00): 9.3 mM
